Some of the results follow. The main result of the screen is listed elsewhere. These columns were measured beside it and carry no call. The list favours compounds with an active or inconclusive main result. The note in brackets gives the kind of curve behind each potency; many fits are weak.
Experiment: qHTS Assay to Find Inhibitors of Chronic Active B-Cell Receptor Signaling
Conditions: ABC-DLBCL IkBa-CBG/CBR reporter, luminescence ratio (green luciferase fused to IkBa over red control in TMD8 lymphoma cells), 4 h
How it was run: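 Compounds up to 46 uM were incubated four hours with TMD8 cells whose green CBG68 luciferase is fused to IkappaBalpha; red CBR luminescence normalised the signal, and concentration-effect curves were fitted to fusion, red and ratio data.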

[1] = measured here: CBR red luminescence, cell number
[2] = measured here: IkBa-CBG green luminescence

Structure (SMILES): COc1ccc(NC(=S)NCc2ccco2)cc1
- AC50 [1]: 6.31 µM [falling, single point]

Structure (SMILES): Cn1c(-c2ccccc2)cnc1NCc1ccc(-c2ccccc2)cc1
- AC50 [1]: 35.5 µM [rising, single point]
- AC50 [2]: 35.5 µM [falling, single point]

Structure (SMILES): COC(=O)CNC(c1ccccc1)c1cc(Br)ccc1NC(=O)CNC(=O)OCc1ccccc1 (centres undefined)
- AC50 [1]: 13 µM [falling, single point]

Structure (SMILES): O=C(Nc1cccc(Cl)c1)c1cncn1-c1ccc(F)cc1
- AC50 [1]: 3.55 µM [falling, partial curve, poor fit]

Structure (SMILES): CCN(C(=O)COC(=O)Cc1ccc(F)cc1)c1c(N)n(Cc2ccccc2)c(=O)[nH]c1=O
- AC50 [1]: 2.31 µM [rising, partial curve, poor fit]

Structure (SMILES): O=C(N/N=C/c1coc2ccccc2c1=O)c1ccccc1Br
- AC50 [1]: 5.17 µM [falling, partial curve, poor fit]

Structure (SMILES): CCOC(=O)C/C(=N\Nc1ncnc2ccccc12)c1ccccc1
- AC50 [1]: 12.6 µM [falling, partial curve]

Structure (SMILES): CCn1nc(C)c(/C=N/NC(=O)c2ccoc2C)c1C
- AC50 [1]: 28.2 µM [falling, single point]

Structure (SMILES): CC1C(=O)N2CCCc3cc(NC(=O)C(=O)NCCc4ccc(F)cc4)cc1c32 (centres undefined)
- AC50 [1]: 20.6 µM [rising, partial curve]
- AC50 [2]: 20.6 µM [falling, single point]

Structure (SMILES): O=C1C(Nc2ccc(O)cc2)=C/C(=N/S(=O)(=O)c2cccs2)c2ccccc21
- AC50 [1]: 7.08 µM [falling, partial curve, poor fit]

Structure (SMILES): O=C(c1c[nH]c(C(=O)C(Cl)(Cl)Cl)c1)c1c(F)cccc1F
- AC50 [1]: 14.1 µM [falling, single point]

Structure (SMILES): Cc1[nH]n(-c2cccc(Cl)c2)c(=O)c1C=NCc1ccco1
- AC50 [1]: 35.5 µM [falling, single point]

Structure (SMILES): CCC(OC(=O)CCc1nc2ccccc2[nH]c1=O)C(=O)c1ccccc1 (centres undefined)
- AC50 [1]: 29.1 µM [rising, single point]

Structure (SMILES): Cc1nnc(SCC2=C(C(=O)O)N3C(=O)C(NC(=O)C(C)n4nc(C(F)(F)F)cc4C)C3SC2)s1 (centres undefined)
- AC50 [1]: 35.5 µM [falling, single point]

Structure (SMILES): CCOc1ccc(NC(=O)CSc2nnc(-c3ccccc3Cl)n2Cc2ccco2)cc1
- AC50 [1]: 35.5 µM [falling, single point]

Structure (SMILES): Cc1nc2c(sc3nc4c(cc32)COC(C)(C)C4)c(=O)n1CC(=O)NCc1ccco1
- AC50 [1]: 35.5 µM [rising, single point]
- AC50 [2]: 15.8 µM [falling, single point]
